# Test results: PubChem BioAssay AID504467 (National Center for Advancing Translational Sciences (NCATS), 2011)
# The whole screen tested about 330,000 compounds, of which about 7,700 (2.3%) were called active. Inconclusive results, whose numbers are uncertain, are shown with a selection of clear calls. Calls follow the shape of the dose curve; as a rule, active = well fitted inhibition curve with a large enough effect; inconclusive = small, poorly fitted or top-dose-only effect, or effect the other way; inactive = flat fitted curve, though single readings scatter. Potencies beside an inconclusive call are fits to weak or partial responses and may not hold up.
# Test: qHTS screen for small molecules that inhibit ELG1-dependent DNA repair in human embryonic kidney (HEK293T) cells expressing luciferase-tagged ELG1; also: nearly all actives have a fitted effect of over 55% in size
# Details: HEK293T ELG1-luciferase reporter, luminescence, 16 h, DNA damage induced by 5-fluorouridine; series mostly up to 46.1 µM
# In short: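 Quantitative HTS, concentration-response format. 2,000 cells/well co-treated with 5-fluorouridine and compound, 16 hr in 5% CO2 at 37 °C; ONE-Glo luminescence read after 30 min.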
# Potency is read from the fitted curve at half-maximal effect.
row,SMILES,Potency
1,COc1ccc2c(CCNC(=O)c3ccco3)c[nH]c2c1,"inconclusive: 20.6 µM [activator, single point]"
2,O=C(CSc1ncccc1-c1nc2ccccc2[nH]1)Nc1ccc2c(c1)OCCO2,inactive
3,COC(=O)C1(CC2CC(c3cccc(Br)c3)=NO2)CCN(C(=O)OC(C)(C)C)CC1 (stereo unspecified),"inconclusive: 20.6 µM [inhibitor, single point]"
4,Cc1cc(C)cc(OCC(=O)NCc2cc(C)nc3ccccc23)c1,"inconclusive: 25.9 µM [inhibitor, partial curve, poor fit]"
5,Cc1cc(OCC(=O)Nc2ccccc2N2CCOCC2)c(C(C)C)cc1Cl,inactive
6,CCN(Cc1ccc(NC(C)=O)cc1)CC1CCCN(CCc2cccc(OC)c2)C1 (stereo unspecified),inactive
7,C/C(=N/Nc1nc(-c2ccccc2)cc(-c2ccccc2)n1)c1ccc(N)cc1,active: 8.2 µM
8,CCNc1nc(NCC)nc(N(CC)C(N)=S)n1,"inconclusive: 20.6 µM [activator, single point]"
9,COc1cc(C(=O)N2CCN(c3cccc(C)c3C)CC2)cc(OC)c1OC,"inconclusive: 11.6 µM [inhibitor, partial curve, poor fit]"
10,CC(=O)Oc1ccc(N2C(=O)C3C(C2=O)C2C=CC3C23CC3)cc1[N+](=O)[O-] (stereo unspecified),inactive
11,Cc1ccc2cc(/C=N/NC(=O)CN3CCCCC3)c(Cl)nc2c1,"inconclusive: 32.6 µM [activator, partial curve, poor fit]"
12,COc1ccc(NC(=O)c2cccs2)cc1,"inconclusive: 16.4 µM [activator, partial curve]"
13,Fc1ccccc1CSc1nc2ccccc2[nH]1,"inconclusive: 1.46 µM [activator, full curve]"
14,O=C(O)CCCC(=O)OCc1c(-c2ccccc2)ncc2ccccc12,inactive
15,COc1ccc(C)c2sc(=NC(=O)c3ccccc3)n(C)c12,"inconclusive: 7.31 µM [activator, partial curve]"
16,CCC(=O)Oc1ccc2c(c1)O/C(=C\c1ccco1)C2=O,"inconclusive: 29.1 µM [activator, single point]"
17,COc1cc2c(C(=O)N3CCN(c4cccc(Cl)c4)CC3)cn(CC(C)C)c(=O)c2cc1OC,"inconclusive: 23.1 µM [inhibitor, single point]"
18,COc1cc(N)c(Cl)cc1C(=O)OCC(=O)N1c2ccccc2NC(=O)C1(C)C,"inconclusive: 23.1 µM [inhibitor, single point]"
19,CSc1nsc(/C=C/Nc2ccc(O)cc2C)c1C#N,"inconclusive: 11.6 µM [inhibitor, partial curve]"
20,COc1ccc(CCNC(=O)C(=O)NCC2CCCN2S(=O)(=O)c2ccc(OC)cc2)cc1 (stereo unspecified),active: 20.6 µM
21,COC(=O)Cc1ccc(NC(=O)c2cccs2)cc1,"inconclusive: 14.6 µM [activator, partial curve]"
22,CSc1cccc(NC(=O)/C=C/c2ccccc2)c1,"inconclusive: 18.4 µM [activator, partial curve]"

row,SMILES,Potency
1,CCOC(=O)C1=CC[C@H]2c3c(c4ccccc4n3C)C[C@H]1N2C,"inconclusive: 0.206 µM [inhibitor, single point]"
2,O=C(c1ccc(Cl)c(S(=O)(=O)N2CCCCCC2)c1)N1CCN(c2ccccc2O)CC1,active: 16.4 µM
3,COc1ccc(C)cc1-n1c(SCC(=O)Nc2cccc(C(=O)O)c2)nc2ccccc2c1=O,inactive
4,COCCNS(=O)(=O)c1cc2[nH]c3c(c2cc1C)C(=O)CC(C)(C)C3,inactive
5,S=C(Nc1ccc(Nc2ccccc2)cc1)NC1CCCCCC1,"inconclusive: 29.1 µM [inhibitor, single point]"
6,COc1ccc(NC(=O)N(C)C[C@H]2Oc3ccc(NC(=O)Cc4ccccc4)cc3CC(=O)N([C@H](C)CO)C[C@H]2C)cc1,inactive
7,CC(C)=CCC[C@](C)(O)C1CC[C@]2(C)C1C(O)CC1[C@@]3(C)CCC(O)C(C)(C)C3C(O[C@@H]3OC(CO)C(O)C(O)C3O[C@@H]3OC(C)C(O)C(O)C3O)C[C@]12C (stereo partly specified),"inconclusive: 13 µM [activator, partial curve]"
8,Cc1ccc(-c2ccc(SCC(=O)N3CCN(c4ccccc4)CC3)nn2)cc1,"inconclusive: 29.1 µM [activator, partial curve, poor fit]"
9,Cc1ccccc1C(=O)N1CCN(c2ccc(NC(=O)CSc3ccc(Cl)cc3)cc2)CC1,"inconclusive: 8.2 µM [inhibitor, partial curve]"
10,O=[N+]([O-])c1cccc(/C=C/c2ccc3cccc(O)c3n2)c1,"inconclusive: 16.4 µM [activator, partial curve]"
11,O=C(O)c1ccc(Cl)c(S(=O)(=O)N2CCC(Cc3ccccc3)CC2)c1,inactive
12,Cc1ccc(CN2C(=O)CCC2C(=O)NCCN2CCN(c3cccc(Cl)c3)CC2)cc1 (stereo unspecified),inactive
13,O=C1C=C(NCc2ccccc2)c2ccccc2C1=O,active: 11.6 µM
14,CCOc1ccc2nc(Cl)c(CN(C(=O)c3cnccn3)C3CCCC3)cc2c1,active: 14.6 µM
15,COc1ccc(NS(=O)(=O)c2ccc3c(c2)[C@H]2C=CC[C@H]2[C@@H](c2ccc(C(=O)O)cc2)N3)cc1,"inconclusive: 29.1 µM [activator, single point]"
16,Cc1ccccc1C(=O)Nc1ccc(N2CCOCC2)nc1,"inconclusive: 29.1 µM [activator, single point]"
17,OCCCCCN=c1cc(-c2ccccc2)oc2ccc(Cl)cc12,"inconclusive: 20.6 µM [activator, partial curve, poor fit]"
18,COc1ccc(C(C)C)cc1S(=O)(=O)n1cnc(C)c1,"inconclusive: 25.9 µM [inhibitor, partial curve, poor fit]"
19,O=C(COC(=O)c1c[nH]c2ccccc12)NC1CCCC1,"inconclusive: 29.1 µM [activator, single point]"
20,NC1(N)OC(CN2C(=O)c3ccccc3C2=O)CS1 (stereo unspecified),inactive
21,O=C(c1nn2c(C(F)(F)F)cc(-c3cccs3)nc2c1Br)N1CCCc2ccccc21,"inconclusive: 16.4 µM [activator, partial curve, poor fit]"
22,CCCS(=O)(=O)c1c(S(=O)(=O)CCC)c2cc(-c3ccncc3)ccn2c1C(=O)OC,"inconclusive: 8.2 µM [activator, partial curve]"

# Rewritten with bars between the fields: five of the compounds above.
row | SMILES | Potency
10 | O=[N+]([O-])c1cccc(/C=C/c2ccc3cccc(O)c3n2)c1 | inconclusive: 16.4 µM [activator, partial curve]
11 | O=C(O)c1ccc(Cl)c(S(=O)(=O)N2CCC(Cc3ccccc3)CC2)c1 | inactive
12 | Cc1ccc(CN2C(=O)CCC2C(=O)NCCN2CCN(c3cccc(Cl)c3)CC2)cc1 (stereo unspecified) | inactive
13 | O=C1C=C(NCc2ccccc2)c2ccccc2C1=O | active: 11.6 µM
14 | CCOc1ccc2nc(Cl)c(CN(C(=O)c3cnccn3)C3CCCC3)cc2c1 | active: 14.6 µM

# (cont.)

row,SMILES,Potency
1,CC(C)CC(c1nnnn1Cc1ccccc1)N1CCC(C(N)=O)CC1 (stereo unspecified),inactive
2,CCN(C[C@H]1N[C@@](C)(C(=O)OC)[C@H]2C(=O)N(Cc3ccccc3)C(=O)[C@@H]12)C(=O)c1ccc(C)cc1,"inconclusive: 20.6 µM [inhibitor, partial curve, poor fit]"
3,O=C(Nc1ccc(C(=O)O)cc1)/C(=C\C=C\c1ccccc1)NC(=O)c1ccccc1Br,"inconclusive: 20.6 µM [activator, partial curve]"
4,CC/C(=N\NC(=O)c1ccc(CN(C)S(=O)(=O)c2ccc(C)cc2)cc1)c1ccc(OC(F)F)cc1,"inconclusive: 25.9 µM [inhibitor, partial curve]"
5,Cc1cccc(Cn2cc(SCC(=O)Nc3nccs3)c3ccccc32)c1,"inconclusive: 6.51 µM [activator, single point]"
6,COc1cccc(-c2cccc(NC(=O)C3CCN(C4CCOCC4)CC3)c2)c1,"inconclusive: 18.3 µM [activator, single point]"
7,CC(C)c1nc2ccc(C(=O)O)cc2[nH]1,"inconclusive: 20.6 µM [activator, partial curve]"
8,CCCn1c(N)c(C(=O)CN(C)CC(=O)Nc2ccc(C)cc2)c(=O)[nH]c1=O,"inconclusive: 18.3 µM [inhibitor, partial curve, poor fit]"
9,CCOC(=O)c1c(NC(=O)c2cc3n(n2)C(C(F)(F)F)CC(c2cccs2)N3)sc(C)c1C (stereo unspecified),"inconclusive: 18.4 µM [activator, partial curve, poor fit]"
10,CCOC(=O)/C=c1\s/c(=C\c2ccccc2C)c(=O)n1CC(=O)NCc1ccc2c(c1)OCO2,inactive
11,O=C(CSc1ccccn1)N/N=C/C=C/c1ccccc1,"inconclusive: 32.6 µM [activator, single point]"
12,NC(=O)NC(=O)C(c1ccccc1)N1CCN(S(=O)(=O)c2ccc(Br)s2)CC1 (stereo unspecified),"inconclusive: 20.6 µM [inhibitor, partial curve, poor fit]"
13,CCN(CC(=O)c1c(N)n(C)c(=O)n(C)c1=O)c1cccc2ccccc12,"inconclusive: 23.1 µM [inhibitor, partial curve]"
14,CC1CCCC(C)N1C(=O)COC(=O)c1ccc2c(c1)OCO2 (stereo unspecified),"inconclusive: 16.4 µM [activator, partial curve]"
15,CCC(C)C1C(C#N)=C(N)OC2=C1C(=O)CC(C)(C)C2 (stereo unspecified),"inconclusive: 25.9 µM [inhibitor, single point]"
16,O=C(NCC(=O)N1CCN(c2ccccc2O)CC1)c1ccc2c(c1)OCO2,inactive
17,Cc1ccc(N2CC(C(=O)Nc3ccc4c(c3)OCCO4)CC2=O)cc1 (stereo unspecified),"inconclusive: 23.1 µM [activator, single point]"
18,Cc1ccc(-c2n[nH]c(=S)n2-c2ccccc2)cc1,inactive
19,COc1ccccc1N(CC(=O)NCc1ccccc1)C(=O)CCC(=O)Nc1ccccn1,"inconclusive: 29.1 µM [inhibitor, single point]"
20,O=C(OCc1ccc(Br)cc1F)c1cc2ccccc2oc1=O,inactive
21,COc1ccc2c(c1)cc1n2CCN=C1NN,"inconclusive: 23.1 µM [activator, partial curve]"
22,O=C(NCCc1c[nH]c2ccccc12)C(=O)NCC1OCCCN1S(=O)(=O)c1ccc(F)cc1 (stereo unspecified),"inconclusive: 29.1 µM [inhibitor, single point]"
